Test results published in the supplement of paper PMC12823440, “Inhibitors supercharge kinase turnover through native proteolytic circuits” (Nature, 2025).
Where a name gives a salt, the structure may show the parent alone. The list shows a part of the results. Hit calls seldom repeat between salt and free forms of one compound.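 In K562 cells expressing nanoluciferase-fused kinases, luminescence was recorded at 4 h intervals between 2 and 18 h, normalized as percent of control with DMSO at 100% and a positive control at 0%. A significant (2 sigma) signal drop marks a time point as decreased. The authors' rule for a hit is not shown and takes in more than the number of time points.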

The chains behind the UniProt entries cited, without tags or fusion partners. Where a name states a change or a piece, a line headed by the entry shows the natural chain unless it says otherwise.
UniProt Q14289, whole entry, looked up: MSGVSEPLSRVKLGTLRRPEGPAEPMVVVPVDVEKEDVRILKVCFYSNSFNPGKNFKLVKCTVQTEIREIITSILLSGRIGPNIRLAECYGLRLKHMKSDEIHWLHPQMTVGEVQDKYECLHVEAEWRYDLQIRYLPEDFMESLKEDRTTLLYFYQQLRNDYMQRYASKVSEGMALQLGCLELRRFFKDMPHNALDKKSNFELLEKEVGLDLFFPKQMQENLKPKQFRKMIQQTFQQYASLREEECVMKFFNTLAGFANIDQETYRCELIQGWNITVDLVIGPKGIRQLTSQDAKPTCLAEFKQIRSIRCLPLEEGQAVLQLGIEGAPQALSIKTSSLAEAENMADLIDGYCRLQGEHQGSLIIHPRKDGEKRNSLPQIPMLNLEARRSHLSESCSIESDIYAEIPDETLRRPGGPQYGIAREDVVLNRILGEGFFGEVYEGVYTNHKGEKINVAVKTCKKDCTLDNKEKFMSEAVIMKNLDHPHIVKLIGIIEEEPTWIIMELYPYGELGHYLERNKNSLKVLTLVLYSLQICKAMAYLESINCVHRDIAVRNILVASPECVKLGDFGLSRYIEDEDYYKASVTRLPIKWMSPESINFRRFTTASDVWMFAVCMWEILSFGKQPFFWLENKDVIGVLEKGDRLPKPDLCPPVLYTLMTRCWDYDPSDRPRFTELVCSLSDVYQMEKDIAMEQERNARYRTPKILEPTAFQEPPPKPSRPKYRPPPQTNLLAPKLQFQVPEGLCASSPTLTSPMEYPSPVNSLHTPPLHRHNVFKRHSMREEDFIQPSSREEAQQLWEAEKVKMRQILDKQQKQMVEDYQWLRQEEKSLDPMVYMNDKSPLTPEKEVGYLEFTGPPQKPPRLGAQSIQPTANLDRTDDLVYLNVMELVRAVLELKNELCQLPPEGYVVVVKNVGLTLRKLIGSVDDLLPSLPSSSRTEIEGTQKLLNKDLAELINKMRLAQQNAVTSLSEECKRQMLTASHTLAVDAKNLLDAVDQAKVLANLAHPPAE
UniProt P07949, whole entry, looked up: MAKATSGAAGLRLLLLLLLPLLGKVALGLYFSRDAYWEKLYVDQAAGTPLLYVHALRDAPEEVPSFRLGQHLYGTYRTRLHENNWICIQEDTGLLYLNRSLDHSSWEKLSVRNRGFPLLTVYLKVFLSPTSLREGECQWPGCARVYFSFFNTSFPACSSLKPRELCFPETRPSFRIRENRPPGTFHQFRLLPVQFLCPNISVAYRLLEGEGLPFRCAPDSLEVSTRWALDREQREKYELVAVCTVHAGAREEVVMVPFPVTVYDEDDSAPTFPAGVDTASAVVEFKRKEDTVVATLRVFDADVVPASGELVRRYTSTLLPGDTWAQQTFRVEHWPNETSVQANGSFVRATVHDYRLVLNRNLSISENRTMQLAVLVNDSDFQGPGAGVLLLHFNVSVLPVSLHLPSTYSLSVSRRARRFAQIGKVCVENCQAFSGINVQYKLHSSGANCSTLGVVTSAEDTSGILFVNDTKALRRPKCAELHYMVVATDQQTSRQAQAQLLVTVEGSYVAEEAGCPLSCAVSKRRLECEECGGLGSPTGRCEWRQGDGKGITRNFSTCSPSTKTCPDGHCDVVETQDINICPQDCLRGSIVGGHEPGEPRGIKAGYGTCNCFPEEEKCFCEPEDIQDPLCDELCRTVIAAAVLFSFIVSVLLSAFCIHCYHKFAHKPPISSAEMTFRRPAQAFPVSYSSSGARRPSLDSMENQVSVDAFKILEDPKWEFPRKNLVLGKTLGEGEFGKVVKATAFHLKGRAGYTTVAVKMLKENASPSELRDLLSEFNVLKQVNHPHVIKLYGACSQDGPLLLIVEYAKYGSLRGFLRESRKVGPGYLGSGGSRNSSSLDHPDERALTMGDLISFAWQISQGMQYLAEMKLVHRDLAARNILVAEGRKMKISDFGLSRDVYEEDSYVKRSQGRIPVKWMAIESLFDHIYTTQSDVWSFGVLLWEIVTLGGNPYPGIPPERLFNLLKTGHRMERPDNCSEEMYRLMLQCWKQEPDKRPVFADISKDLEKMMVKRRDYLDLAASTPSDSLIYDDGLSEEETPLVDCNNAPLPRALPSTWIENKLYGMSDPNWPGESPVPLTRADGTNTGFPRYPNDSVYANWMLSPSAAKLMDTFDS
UniProt P07949, whole entry M918T, looked up: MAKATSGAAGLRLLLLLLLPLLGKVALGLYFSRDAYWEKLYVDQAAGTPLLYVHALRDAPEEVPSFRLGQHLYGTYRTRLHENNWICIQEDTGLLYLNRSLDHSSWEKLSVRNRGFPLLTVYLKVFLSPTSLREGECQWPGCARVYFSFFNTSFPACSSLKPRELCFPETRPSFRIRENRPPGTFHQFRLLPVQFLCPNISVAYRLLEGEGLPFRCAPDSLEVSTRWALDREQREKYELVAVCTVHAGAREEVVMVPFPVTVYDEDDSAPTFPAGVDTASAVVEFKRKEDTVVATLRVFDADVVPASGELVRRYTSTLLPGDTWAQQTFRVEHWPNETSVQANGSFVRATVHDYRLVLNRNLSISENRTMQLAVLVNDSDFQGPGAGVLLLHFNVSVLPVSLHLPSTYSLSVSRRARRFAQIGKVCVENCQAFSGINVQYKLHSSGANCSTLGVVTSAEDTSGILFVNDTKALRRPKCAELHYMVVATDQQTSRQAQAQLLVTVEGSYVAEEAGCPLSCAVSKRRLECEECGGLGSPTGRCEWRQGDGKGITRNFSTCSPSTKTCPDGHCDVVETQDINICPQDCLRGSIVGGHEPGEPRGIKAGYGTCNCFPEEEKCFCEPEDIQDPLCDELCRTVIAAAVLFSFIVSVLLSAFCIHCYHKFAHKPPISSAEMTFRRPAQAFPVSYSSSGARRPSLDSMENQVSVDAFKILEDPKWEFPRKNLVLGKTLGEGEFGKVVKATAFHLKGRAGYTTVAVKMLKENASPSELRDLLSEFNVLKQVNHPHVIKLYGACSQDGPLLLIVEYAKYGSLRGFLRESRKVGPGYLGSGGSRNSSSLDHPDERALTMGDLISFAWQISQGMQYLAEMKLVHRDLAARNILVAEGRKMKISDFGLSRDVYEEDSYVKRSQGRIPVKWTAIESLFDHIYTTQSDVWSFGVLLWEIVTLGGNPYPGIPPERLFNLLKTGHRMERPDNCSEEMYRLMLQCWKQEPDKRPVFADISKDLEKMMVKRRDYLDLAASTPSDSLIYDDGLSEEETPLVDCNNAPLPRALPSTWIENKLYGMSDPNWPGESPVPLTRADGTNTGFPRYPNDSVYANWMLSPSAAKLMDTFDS
UniProt Q9Y6E0: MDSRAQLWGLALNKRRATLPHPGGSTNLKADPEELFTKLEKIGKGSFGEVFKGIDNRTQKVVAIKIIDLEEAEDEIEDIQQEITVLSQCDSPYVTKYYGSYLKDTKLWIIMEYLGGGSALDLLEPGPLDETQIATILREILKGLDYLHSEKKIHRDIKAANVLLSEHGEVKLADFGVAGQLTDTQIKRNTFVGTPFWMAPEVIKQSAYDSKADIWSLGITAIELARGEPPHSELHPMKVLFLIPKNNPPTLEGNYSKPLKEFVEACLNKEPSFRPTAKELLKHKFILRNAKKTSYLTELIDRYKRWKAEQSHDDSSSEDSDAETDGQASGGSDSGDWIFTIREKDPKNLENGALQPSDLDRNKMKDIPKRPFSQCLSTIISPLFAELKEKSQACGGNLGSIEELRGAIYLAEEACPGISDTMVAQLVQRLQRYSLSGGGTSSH
UniProt Q15208: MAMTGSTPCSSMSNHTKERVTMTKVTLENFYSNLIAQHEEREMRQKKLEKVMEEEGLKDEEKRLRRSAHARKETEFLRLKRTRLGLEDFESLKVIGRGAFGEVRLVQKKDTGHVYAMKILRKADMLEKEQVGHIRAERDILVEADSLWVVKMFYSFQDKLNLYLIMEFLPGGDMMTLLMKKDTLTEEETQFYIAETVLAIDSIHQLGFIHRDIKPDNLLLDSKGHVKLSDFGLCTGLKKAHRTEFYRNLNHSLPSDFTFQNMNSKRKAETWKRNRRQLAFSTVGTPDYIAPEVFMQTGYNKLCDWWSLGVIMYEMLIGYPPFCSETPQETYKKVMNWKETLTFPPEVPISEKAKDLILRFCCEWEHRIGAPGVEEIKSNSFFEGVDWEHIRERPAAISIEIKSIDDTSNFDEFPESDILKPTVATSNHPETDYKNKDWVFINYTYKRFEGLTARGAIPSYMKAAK
UniProt P29597: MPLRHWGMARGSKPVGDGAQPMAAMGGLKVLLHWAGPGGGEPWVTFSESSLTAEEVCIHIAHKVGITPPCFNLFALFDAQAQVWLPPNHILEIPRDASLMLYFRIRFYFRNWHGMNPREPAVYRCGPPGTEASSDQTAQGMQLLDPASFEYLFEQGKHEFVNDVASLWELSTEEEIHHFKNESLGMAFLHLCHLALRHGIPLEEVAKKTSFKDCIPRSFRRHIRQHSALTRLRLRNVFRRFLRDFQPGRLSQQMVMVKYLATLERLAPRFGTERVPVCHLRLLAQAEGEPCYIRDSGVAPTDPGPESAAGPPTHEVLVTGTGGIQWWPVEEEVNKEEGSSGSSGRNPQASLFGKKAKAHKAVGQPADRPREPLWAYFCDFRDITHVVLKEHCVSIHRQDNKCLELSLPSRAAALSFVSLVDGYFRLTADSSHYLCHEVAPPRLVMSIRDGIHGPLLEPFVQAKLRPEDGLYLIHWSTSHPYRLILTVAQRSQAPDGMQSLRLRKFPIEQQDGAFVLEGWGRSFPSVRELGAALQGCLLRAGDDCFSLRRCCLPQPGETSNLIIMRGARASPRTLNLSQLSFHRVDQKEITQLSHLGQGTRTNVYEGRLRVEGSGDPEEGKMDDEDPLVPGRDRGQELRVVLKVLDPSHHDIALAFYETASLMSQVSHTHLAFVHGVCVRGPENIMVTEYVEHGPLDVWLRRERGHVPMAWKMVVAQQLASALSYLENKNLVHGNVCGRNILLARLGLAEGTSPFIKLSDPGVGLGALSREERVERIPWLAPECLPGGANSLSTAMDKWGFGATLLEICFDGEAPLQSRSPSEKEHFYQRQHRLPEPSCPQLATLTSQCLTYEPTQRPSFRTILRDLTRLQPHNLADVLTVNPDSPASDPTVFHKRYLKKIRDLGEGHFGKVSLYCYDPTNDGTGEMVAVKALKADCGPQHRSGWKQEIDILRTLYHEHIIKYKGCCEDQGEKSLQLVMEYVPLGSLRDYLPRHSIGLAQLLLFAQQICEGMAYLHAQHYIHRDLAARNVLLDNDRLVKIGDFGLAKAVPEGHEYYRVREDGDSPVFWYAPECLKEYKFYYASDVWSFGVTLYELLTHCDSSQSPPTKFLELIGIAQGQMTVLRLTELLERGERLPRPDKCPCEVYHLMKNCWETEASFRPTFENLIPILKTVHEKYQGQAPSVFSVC
UniProt Q6PHR2: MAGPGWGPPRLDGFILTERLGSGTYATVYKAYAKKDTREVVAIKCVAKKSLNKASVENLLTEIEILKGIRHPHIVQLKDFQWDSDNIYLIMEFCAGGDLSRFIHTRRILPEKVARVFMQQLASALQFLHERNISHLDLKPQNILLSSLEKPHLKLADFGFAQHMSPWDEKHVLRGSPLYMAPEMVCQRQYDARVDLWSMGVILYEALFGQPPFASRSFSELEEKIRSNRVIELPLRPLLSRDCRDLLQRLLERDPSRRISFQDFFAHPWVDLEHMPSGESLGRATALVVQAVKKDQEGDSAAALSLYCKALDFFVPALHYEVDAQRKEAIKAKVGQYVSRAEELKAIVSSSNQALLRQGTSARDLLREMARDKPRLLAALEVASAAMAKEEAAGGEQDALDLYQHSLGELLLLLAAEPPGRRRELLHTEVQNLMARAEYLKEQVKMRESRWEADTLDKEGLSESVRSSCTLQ

Assays:
Test in all cases: number of time points (of 5) at which kinase-Nluc abundance scored as decreased, DMSO-normalised (count); higher = more persistent destabilization
Settings in all cases: K562; 2-18 h
PRKCA = PRKCA (UniProt P17252)
PTK2 = PTK2 (UniProt Q05397)
PTK2B = PTK2B (UniProt Q14289)
RAF1 = RAF1 (UniProt P04049)
[1] = biological target: RAF1_S257L (clone: RAF1_mut) (UniProt P04049)
RET = RET (UniProt P07949)
[2] = biological target: RET_M918T (clone: RET_mut) (UniProt P07949)
RIOK1 = RIOK1 (UniProt Q9BRS2)
RIPK1 = RIPK1 (UniProt Q13546)
RIPK2 = RIPK2 (UniProt O43353)
ROR2 = ROR2 (UniProt Q01974)
RPS6KA1 = RPS6KA1 (UniProt Q15418)
SPHK1 = SPHK1 (UniProt Q9NYA1)
SRC = SRC (UniProt P12931)
STK24 = STK24 (UniProt Q9Y6E0)
STK38 = STK38 (UniProt Q15208)
SYK = SYK (UniProt P43405)
TEC = TEC (UniProt P42680)
TYK2 = TYK2 (UniProt P29597)
ULK3 = ULK3 (UniProt Q6PHR2)

Row | Structure (SMILES) | number of time points (PRKCA) | number of time points (PTK2) | number of time points (PTK2B) | number of time points (RAF1) | number of time points [1] | number of time points (RET) | number of time points [2] | number of time points (RIOK1) | number of time points (RIPK1) | number of time points (RIPK2) | number of time points (ROR2) | number of time points (RPS6KA1) | number of time points (SPHK1) | number of time points (SRC) | number of time points (STK24) | number of time points (STK38) | number of time points (SYK) | number of time points (TEC) | number of time points (TYK2) | number of time points (ULK3)
1 | COc1cc(C(C)=O)cc(OC)c1O [Acetosyringone] (10 µM) | 0 | 0 | 0 | 0 | 0 | 0 | 0 | 0 | 0 | 0 | 0 | 0 | 0 | 0 | 0 | 0 | 0 | 0 | 0 | 0
2 | N#C/C(=C\c1ccc2oc(=O)[nH]c2c1)C(=O)c1ccc(O)c(O)c1 (10 µM) | 0 | 0 | 0 | 0 | 0 | 0 | 0 | 0 | 0 | 0 | 0 | 0 | 0 | 0 | 0 | 0 | 0 | 0 | 0 | 0
3 | Nc1ncc(-c2ccc(C(=O)N3CCNCC3)cc2)nc1-c1ccc(C(F)(F)F)cc1 (10 µM) | 0 | 0 | 0 | 0 | 0 | 0 | 0 | 0 | 0 | 0 | 0 | 0 | 0 | 0 | 0 | 0 | 0 | 0 | 0 | 0
4 | CC(C)C[C@H](NC(=O)[C@H](CCCCN)NC(=O)[C@H](CO)NC(=O)[C@@H](N)CC(C)C)C(N)=O [LSKL, Inhibitor of Thrombospondin (TSP-1) (TFA)] (10 µM) | 0 | 0 | 0 | 0 | 0 | 0 | 0 | 0 | 0 | 0 | 0 | 0 | 0 | 0 | 0 | 0 | 0 | 0 | 0 | 0
5 | CC[C@@H](N)CNc1ccnc(-c2cc(-c3cnn(C)c3)ccc2O)n1 (2.5 µM) | 0 | 0 | 0 | 0 | 3 | 0 | 0 | 0 | 2 | 0 | 0 | 0 | 0 | 0 | 0 | 0 | 0 | 0 | 0 | 0
6 | COc1ccc2c(Oc3ccc(NC(=O)c4c(C)n(CC(C)(C)O)n(-c5ccccc5)c4=O)cc3F)ccnc2c1 (2.5 µM) | 0 | 0 | 0 | 1 | 3 | 0 | 0 | 0 | 1 | 1 | 0 | 0 | 0 | 0 | 0 | 0 | 0 | 0 | 0 | 3
7 | CCn1nc(C2CCN(C(=O)CCO)CC2)nc1-c1cnc(N)c(-c2nnc(C(C)(C)C)o2)n1 (10 µM) | 0 | 0 | 0 | 0 | 0 | 0 | 0 | 0 | 0 | 0 | 0 | 0 | 0 | 0 | 0 | 0 | 0 | 0 | 0 | 0
8 | O=C1NC(=O)C(=Cc2ccc3c(c2)OCO3)S1 (10 µM) | 0 | 0 | 0 | 0 | 0 | 0 | 0 | 0 | 0 | 0 | 0 | 0 | 0 | 0 | 0 | 0 | 0 | 0 | 0 | 0
9 | CN1CC[C@H](c2c(O)cc(O)c3c(=O)cc(-c4ccc(C(F)(F)F)cc4Cl)oc23)[C@H]1CO [(2S,3R)-Voruciclib (hydrochloride)] (2.5 µM) | 0 | 0 | 0 | 0 | 2 | 0 | 0 | 0 | 0 | 0 | 0 | 0 | 0 | 0 | 0 | 0 | 0 | 0 | 0 | 0
10 | C=CC(=O)N1CCC(Oc2cc3c(Nc4ccc(Cl)c(Cl)c4F)ncnc3cc2OC)CC1 [Poziotinib] (2.5 µM) | 0 | 0 | 0 | 0 | 0 | 0 | 0 | 0 | 0 | 0 | 0 | 0 | 0 | 0 | 0 | 0 | 0 | 0 | 0 | 0
11 | CCN(C)C(=O)c1ccc2c(C(=Nc3ccc(CN4CCCCC4)cc3)c3ccccc3)c(O)[nH]c2c1 (2.5 µM) | 0 | 0 | 0 | 0 | 0 | 0 | 0 | 0 | 0 | 0 | 0 | 0 | 0 | 0 | 0 | 0 | 0 | 0 | 0 | 0
12 | C=CC(=O)Nc1cccc(-n2c(=O)cc(C)c3cnc(Nc4ccc(OCCN(C)C)cc4OC)nc32)c1 (10 µM) | 0 | 0 | 0 | 0 | 0 | 0 | 0 | 0 | 0 | 0 | 0 | 0 | 0 | 0 | 0 | 0 | 0 | 0 | 0 | 0
13 | Nc1nc2cc(-c3ccc4ncc(C(=O)N5CCOCC5)n4c3)ccc2o1 [Serabelisib] (10 µM) | 0 | 0 | 0 | 0 | 0 | 0 | 0 | 0 | 0 | 0 | 0 | 0 | 0 | 0 | 0 | 0 | 0 | 0 | 0 | 0
14 | COc1ccc(CCNc2ncc3c(=O)n(-c4cccc(F)c4)c(=O)[nH]c3n2)cc1OC (2 µM) | 0 | 0 | 0 | 0 | 0 | 0 | 0 | 0 | 0 | 0 | 0 | 0 | 0 | 0 | 0 | 0 | 0 | 0 | 0 | 0
15 | O=C1NC(=O)/C(=C/c2ccc(-c3ccc(F)cc3O)o2)S1 (10 µM) | 0 | 0 | 0 | 0 | 0 | 0 | 0 | 0 | 0 | 0 | 0 | 0 | 0 | 0 | 0 | 0 | 0 | 0 | 0 | 0
16 | Cn1cc(-c2cc3c(N4CCN(c5ncc([C@@](C)(N)c6ccc(F)cc6)cn5)CC4)ncnn3c2)cn1 [Avapritinib] (2.5 µM) | 0 | 0 | 0 | 0 | 0 | 0 | 0 | 0 | 0 | 0 | 0 | 0 | 0 | 0 | 0 | 0 | 0 | 0 | 0 | 0
17 | C[C@H]1[C@H](OC(=O)CCC(=O)O)O[C@@H]2O[C@@]3(C)CC[C@H]4[C@H](C)CC[C@@H]1[C@@]24OO3 [Artesunate] (2.5 µM) | 0 | 0 | 0 | 1 | 2 | 1 | 0 | 0 | 1 | 1 | 0 | 0 | 1 | 0 | 0 | 0 | 0 | 0 | 2 | 0
18 | CN(C)c1nc2c(Br)c(Br)c(Br)c(Br)c2n1CC(=O)O (10 µM) | 0 | 0 | 0 | 0 | 0 | 0 | 0 | 0 | 0 | 0 | 0 | 0 | 0 | 0 | 0 | 0 | 0 | 0 | 0 | 0
19 | CCC(C)(C)C(=O)N(O)Cc1ccccc1 (10 µM) | 0 | 0 | 0 | 0 | 0 | 0 | 0 | 0 | 0 | 0 | 0 | 0 | 0 | 0 | 0 | 0 | 0 | 0 | 0 | 0
20 | CN(CC(=O)N(Cc1ccc(C2CCCCC2)cc1)c1ccc(C(=O)O)c(O)c1)S(=O)(=O)c1c(F)c(F)c(F)c(F)c1F (2.5 µM) | 0 | 0 | 0 | 0 | 0 | 0 | 0 | 0 | 0 | 0 | 0 | 0 | 0 | 0 | 0 | 0 | 0 | 0 | 0 | 0
21 | N=C(N)NC(=N)NCCc1ccccc1 [Phenformin (hydrochloride)] (10 µM) | 0 | 0 | 0 | 0 | 0 | 0 | 0 | 0 | 0 | 0 | 0 | 0 | 0 | 0 | 0 | 0 | 0 | 0 | 0 | 0
22 | Cc1cc2ncc(-c3ccccc3)nc2cc1C (10 µM) | 0 | 0 | 0 | 0 | 0 | 0 | 0 | 0 | 0 | 0 | 0 | 0 | 0 | 0 | 0 | 0 | 0 | 0 | 0 | 0
23 | COc1nc(-c2ccnc(NC(=O)C3CC3)c2)sc1C(N)=O [GSK-3β inhibitor 2] (10 µM) | 0 | 2 | 0 | 0 | 0 | 0 | 0 | 0 | 0 | 0 | 0 | 0 | 0 | 0 | 0 | 0 | 0 | 0 | 0 | 0
24 | C=C(F)C(=O)N1CCN(c2nc(OC[C@@H]3CCCN3C)nc3c2CCN(c2cccc4cccc(Cl)c24)C3)C[C@@H]1CC#N (2.5 µM) | 0 | 0 | 0 | 0 | 0 | 0 | 0 | 0 | 0 | 0 | 0 | 0 | 0 | 0 | 0 | 0 | 0 | 0 | 0 | 0

Sorted by count of non-hydrogen atoms (high to low): part of the list above.
Row | Structure (SMILES) | number of time points (PRKCA) | number of time points (PTK2) | number of time points (PTK2B) | number of time points (RAF1) | number of time points [1] | number of time points (RET) | number of time points [2] | number of time points (RIOK1) | number of time points (RIPK1) | number of time points (RIPK2) | number of time points (ROR2) | number of time points (RPS6KA1) | number of time points (SPHK1) | number of time points (SRC) | number of time points (STK24) | number of time points (STK38) | number of time points (SYK) | number of time points (TEC) | number of time points (TYK2) | number of time points (ULK3)
20 | CN(CC(=O)N(Cc1ccc(C2CCCCC2)cc1)c1ccc(C(=O)O)c(O)c1)S(=O)(=O)c1c(F)c(F)c(F)c(F)c1F (2.5 µM) | 0 | 0 | 0 | 0 | 0 | 0 | 0 | 0 | 0 | 0 | 0 | 0 | 0 | 0 | 0 | 0 | 0 | 0 | 0 | 0
14 | COc1ccc(CCNc2ncc3c(=O)n(-c4cccc(F)c4)c(=O)[nH]c3n2)cc1OC (2 µM) | 0 | 0 | 0 | 0 | 0 | 0 | 0 | 0 | 0 | 0 | 0 | 0 | 0 | 0 | 0 | 0 | 0 | 0 | 0 | 0
18 | CN(C)c1nc2c(Br)c(Br)c(Br)c(Br)c2n1CC(=O)O (10 µM) | 0 | 0 | 0 | 0 | 0 | 0 | 0 | 0 | 0 | 0 | 0 | 0 | 0 | 0 | 0 | 0 | 0 | 0 | 0 | 0
